The test system of the data set is human C3bBb complex. Put plainly: Stability (decay) of C3bBb complexes with different Bb subunits by Bio Layer Interferometry. It counts as binding.

B1: FB (D279G, K350N and M458I): FB with D279G, K350N and M458I mutations is indicated in SEQ ID NO: 493 (protein, UniProt P00751 26-764, looked up, variant D279G K350N M458I)
Complement factor B: TPWSLARPQGSCSLEGVEIKGGSFRLLQEGQALEYVCPSGFYPYPVQTRTCRSTGSWSTLKTQDQKTVRKAECRAIHCPRPHDFENGEYWPRSPYYNVSDEISFHCYDGYTLRGSANRTCQVNGRWSGQTAICDNGAGYCSNPGIPIGTRKVGSQYRLEDSVTYHCSRGLTLRGSQRRTCQEGGSWSGTEPSCQDSFMYDTPQEVAEAFLSSLTETIEGVDAEDGHGPGEQQKRKIVLDPSGSMNIYLVLDGSGSIGASNFTGAKKCLVNLIEKVASYGVKPRYGLVTYATYPKIWVKVSEADSSNADWVTKQLNEINYEDHKLNSGTNTKKALQAVYSMMSWPDDVPPEGWNRTRHVIILMTDGLHNMGGDPITVIDEIRDLLYIGKDRKNPREDYLDVYVFGVGPLVNQVNINALASKKDNEQHVFKVKDIENLEDVFYQMIDESQSLSLCGMVWEHRKGTDYHKQPWQAKISVIRPSKGHESCMGAVVSEYFVLTAAHCFTVDDKEHSIKVSVGGEKRDLEIEVVLFHPNYNINGKKEAGIPEFYDYDVALIKLKNKLKYGQTIRPICLPCTEGTTRALRLPPTTTCQQQKEELLPAQDIKALFVSEEEKKLTRKEVYIKNGDKKGSCERDAQYAPGYDKVKDISEVVTPRFLCTGGVSPYADPNTCRGDSGGPLIVHKRSRFIQVGVISWGVVDVCKNQKRQKQVPAHARDFHINLFQVLPWLKEKLQDEDLGFL
B1: the “prevalence of main species” value is listed as 93% (Mg2+, double exponential fit) and 100% (Ni2+, single exponential fit).
